Experimental data reported in PubChem BioAssay AID758 (NMMLSC, 2007).
Hit rate of the full screen: of about 190,000 compounds, about 110 (0.058%) were called active. Inconclusive means that the source gave no clear call. Such entries were picked first, then a sample of the others.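 Rule for the calls: active = fluorescent GTP binding to Rab7 beads changed by at least 20 points from the 100% baseline, either direction, mostly lower; inconclusive = compound itself probably fluorescent, or too few beads counted; inactive = the rest.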

What follows are compounds tested on Rab7 GTPase wild type (dog), Bodipy-FL-GTP binding (assay: modulators of GTP binding to Rab7, primary screen, biochemical, wildtype, multiplex bead flow cytometry (AID 758;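 note: median green fluorescence of bound Bodipy-FL-GTP per Rab7 bead population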)). Conditions: GST-Rab7 beads, fluorescent GTP binding, at 10 µM, actives lie on both sides, untreated = 100%, excess cold GTP = 0%.

SMILES	GTP binding activity (percent of control)
NNC(=O)c1ccc(Cn2cc(Br)cn2)cc1	inconclusive: 106%
CCOC(=O)C1(Cc2cccc(OC)c2)CCN(C(C)COC)CC1 (stereo not given)	inactive: 104%
O=C(N/N=C/c1ccccn1)c1cccs1	inactive: 110%
Cc1nc(SCC(=O)O)c(C#N)c(C)c1CC(=O)c1ccccc1	inactive: 94%
COC(=O)c1cc(NC(=O)c2cccs2)ccc1N1CCOCC1	inconclusive: 96%
N#Cc1ccc(-c2ccc(OCC(=O)NCC(=O)Nc3ccc(F)c(F)c3F)cc2)cc1	inconclusive: 104%
Cc1ccc2c(c1)c(-c1ccccc1)nc1nncn12	inconclusive: 97%
Cc1nnc(SCc2cc(=O)[nH]c(N3CCN(Cc4ccccc4)CC3)n2)s1	inconclusive: 102%
C=CCn1c(SCC(=O)N2CC(=O)Nc3ccccc32)nc2scc(-c3ccccc3)c2c1=O	inconclusive: 101%
Cc1nonc1C(=O)N/N=C/c1ccc(O)cc1O	inactive: 108%
COc1ccc2ccccc2c1C(=O)/C=C\c1ccoc1	inconclusive: 100%
COCCN(CCOC)S(=O)(=O)c1ccc(C(=O)Nc2nc(-c3ccncc3)cs2)cc1	inconclusive: 93%
CC1CCN(S(=O)(=O)c2ccc(S(=O)(=O)NCc3cccnc3)cc2)CC1	inactive: 98%
COc1ccc(CN(Cc2ccc(C(=O)O)cc2)C(=S)Nc2ccc(C)cc2)cc1OC	inactive: 104%
Cc1ccc(NC(=O)COC(=O)/C=C/c2cccs2)c(C)c1	inactive: 99%
COc1ccc(-c2cc(C(F)(F)F)nc(NCc3ccco3)n2)cc1OC	inconclusive: 101%
Brc1ccc(C2Nc3cccc4cccc(c34)N2)s1	inactive: 98%
Cc1n[nH]c(C)c1S(=O)(=O)N1CCC(C(=O)O)CC1	inconclusive: 105%
CCCOC(=O)c1ccc(Cl)c(NC(=O)c2ccc(-c3ccccc3)cc2)c1	inconclusive: 101%
CCN(CC(=O)Nc1ccc(Cl)c(S(=O)(=O)N(C)C)c1)Cc1nc2ccccc2c(=O)[nH]1	inactive: 105%
COCCN(C(=S)Nc1cc(C)ccc1C)C(C)c1cccnc1 (stereo not given)	inconclusive: 499%
Cc1cc(S(=O)(=O)N(Cc2ccc(F)cc2)CC2CCCO2)ccc1-n1cnnn1 (stereo not given)	inconclusive: 105%
COc1ccc(NC(=O)c2c(N)no[n+]2[O-])cc1	inconclusive: 92%
CCN(CC)S(=O)(=O)c1ccc(NC(=O)Cc2cccs2)cc1	inconclusive: 102%

SMILES	GTP binding activity (percent of control)
Cc1cccc(NS(=O)(=O)c2cccc3nonc23)c1	inconclusive: 95%
COC(=O)c1cc2c(ccn2-c2ccc(F)cc2)n1CC(=O)OC(C)C	inconclusive: 95%
CCN(CC)S(=O)(=O)c1cc(NC(=O)CSc2nc3c(cc2C#N)C(=O)CC(C)(C)C3)ccc1C	inactive: 95%
CCCC(=O)N(Cc1cc2ccccc2[nH]c1=O)c1ccccc1OC	inconclusive: 105%
OC1(c2cccc(C(F)(F)F)c2)CCN(c2ncnc3c2[nH]c2ccc(F)cc23)CC1	inconclusive: 95%
CCOc1cccc(CN2CCN(CCc3ccccc3)C(CCO)C2)c1O (stereo not given)	inactive: 98%
Cc1c(NC(=S)NC(NC(=O)C(C)C)C(Cl)(Cl)Cl)c(=O)n(-c2ccccc2)n1C (stereo not given)	inactive: 99%
CCOC(=O)NC(Nc1ncccn1)(C(F)(F)F)C(F)(F)F	inconclusive: 92%
O=C(CSc1nnc(SCc2cccc3ccccc23)s1)c1ccc2c(c1)OCO2	inconclusive: 90%
CCC(CC)C(=O)c1c[nH]c(C(=O)NCc2cccnc2)c1	inconclusive: 91%
Cc1cccc(C(=O)c2ccccc2C(=O)O)c1O	inconclusive: 106%
Cc1ccc(CNC(=O)Cc2csc(Nc3nc(=S)[nH]c4ccccc34)n2)cc1	inconclusive: 96%
CCOc1ccccc1C(=O)Nc1cccc(-c2nnc(-c3ccccc3)o2)c1	inconclusive: 87%
CC(C)CC(c1nnnn1C(C)C)N1CCN(c2cccc(Cl)c2)CC1 (stereo not given)	inconclusive: 101%
O=C(NCCN1CCN(Cc2ccccc2)CC1)C1c2ccccc2C(=O)N2CCc3ccccc3C12 (stereo not given)	inconclusive: 106%
CCc1ccc(CNC(=O)c2cc3c(C)nc4ccccc4c3o2)cc1	inconclusive: 90%
O=C(CCN1CCOCC1)Nc1ccccc1	inconclusive: 101%
Cc1cccc(NCC(O)Cn2cnc3c2c(=O)n(C)c(=O)n3C)c1 (stereo not given)	inactive: 106%
Cc1ccc(C(=O)NC(=S)Nc2ccc3[nH]c(=O)[nH]c3c2)c(C)c1	inconclusive: 98%
Cc1nn(CC(=O)c2ccc(Cl)s2)c(C)c1[N+](=O)[O-]	inactive: 103%
O=C(CCn1ccnc1)Nc1ccc2ccccc2c1	inactive: 104%
CCC(=O)c1ccc(OCC(O)CN(CCc2ccccc2)Cc2ccccc2)cc1 (stereo not given)	inconclusive: 96%
c1ccc2[nH]c3cc4ncnc4cc3nc2c1	inactive: 87%
CCNC(=O)C1CCCN1S(=O)(=O)c1ccc(OC)cc1 (stereo not given)	inconclusive: 92%

In the list so far, five contain an aryl thioether with sulfur outside any ring.
SMILES	GTP binding activity (percent of control)
Cc1nc(SCC(=O)O)c(C#N)c(C)c1CC(=O)c1ccccc1	inactive: 94%
Cc1nnc(SCc2cc(=O)[nH]c(N3CCN(Cc4ccccc4)CC3)n2)s1	inconclusive: 102%
C=CCn1c(SCC(=O)N2CC(=O)Nc3ccccc32)nc2scc(-c3ccccc3)c2c1=O	inconclusive: 101%
CCN(CC)S(=O)(=O)c1cc(NC(=O)CSc2nc3c(cc2C#N)C(=O)CC(C)(C)C3)ccc1C	inactive: 95%
O=C(CSc1nnc(SCc2cccc3ccccc23)s1)c1ccc2c(c1)OCO2	inconclusive: 90%

Later entries.

SMILES	GTP binding activity (percent of control)
C#CCN(C(=O)CC1C(=O)NCCN1C/C=C/c1ccccc1)C1CCCCC1 (stereo not given)	inactive: 102%
O=C(CN1CCN(c2ccccn2)CC1)Nc1ccc(OCc2ccccc2)cc1	inconclusive: 105%
CCO[C@@H]1OC(C(=O)NCc2ccccc2)=C[C@H](c2coc3ccccc3c2=O)[C@H]1CCCO	inactive: 100%
O=C(CSc1ncccn1)NCc1cccs1	inactive: 95%
O=C(CNCC1CCCO1)Nc1ccc(N2CCCCCC2)cc1 (stereo not given)	inconclusive: 103%
O=C(Cn1cnc2scc(-c3ccc(Br)cc3)c2c1=O)N1CCOCC1	inactive: 105%
CCN(CC)c1ccc(/C=c2\sc3nnc(-c4ccccc4Cl)n3c2=O)cc1	inconclusive: 160%
N/C(=N\OC(=O)c1cc(Cl)ccc1Cl)c1ccccn1	inactive: 98%
CCCCCOC(=O)C1=C(C)NC(=O)NC1c1ccccc1OCC (stereo not given)	inactive: 101%
Cn1ccnc1C1CCCCN1Cc1nc(-c2ccc(Cl)cc2)no1 (stereo not given)	inactive: 96%
CCCn1c(SCCc2ccccc2)nc2c1c(=O)[nH]c(=O)n2C	inconclusive: 101%
O=c1c2c(nc3cc(-c4ccc(Br)cc4)[nH]n13)CCCC2	inconclusive: 90%
Cc1ccc2c(c1)cc(CN(Cc1cccnc1)C(=O)c1ccccc1)c1nnnn12	inconclusive: 94%
CC1(C)CC(NC(=O)c2ccncc2)CC(C)(C)N1O	inactive: 93%
O=c1ccn(Cc2ccccc2Cl)cc1	inconclusive: 104%
COC(=O)C(NS(=O)(=O)c1ccc(NC(C)=O)cc1)C(C)C (stereo not given)	inconclusive: 93%
C=CCOC(=O)CCCC(=O)NC1CCCCC1	inconclusive: 102%
CCOC(=O)N1CCN(C(=O)c2cccc(NC(=O)c3ccco3)c2)CC1	inconclusive: 97%
S=c1cnc2ccccc2[nH]1	inactive: 98%
CCCCNC(=S)N(Cc1ccco1)Cc1cc2cc3c(cc2[nH]c1=O)OCCO3	inconclusive: 99%
COc1ccc(S(N)(=O)=O)cc1C(=O)NCC1(N2CCCCC2)CCCCC1	inactive: 100%
CCNC(=O)c1cc2c(=O)n3cccc(C)c3nc2n(CCc2ccccc2)c1=N	inactive: 87%
COc1ccc(-c2csc(Nc3ccc(S(N)(=O)=O)cc3)n2)cc1OC	inconclusive: 90%
Clc1cc(Cl)cc(C2=NCCC(c3ccccc3)O2)c1 (stereo not given)	inactive: 96%

SMILES	GTP binding activity (percent of control)
O=C1c2ccccc2C(=O)c2c1cccc2N1CCCC1	inconclusive: 100%
CNc1nc2c(C)cccn2c(=O)c1C=Nc1ccc(OC)cc1	inactive: 90%
CCCCCCCCCCS(=O)(=O)N/N=C/c1ccc(O)cc1	inconclusive: 91%
COc1ccc(CNC(=O)C2CCCN(c3nccc(C)n3)C2)cc1 (stereo not given)	inactive: 98%
COc1ccc(-c2cnc[nH]2)cc1	inactive: 100%
Cn1c(=O)c2c(ncn2CC(=O)N/N=C/c2cn[nH]c2-c2ccc(F)cc2)n(C)c1=O	inconclusive: 97%
S=C(c1ccc(-c2ccccc2)o1)N1CCCCC1	inconclusive: 94%
Cc1c(C(=O)NCCN2CCOCC2)oc2ccc(S(=O)(=O)N3CCCCCC3)cc12	inconclusive: 104%
Cc1c(/C=N/NC(=O)CNc2ccccc2)c2ccccn2c1C(=O)c1ccncc1	inconclusive: 90%
COc1ccc(NC(=O)COC(=O)CNC(=O)C2CCCCC2)cc1	inconclusive: 96%
COc1cc(NC(=O)c2ccc(Br)o2)c(C(=O)O)cc1OC	inconclusive: 88%
OC(COc1c(Cl)cc(Cl)cc1Cl)CN1CCCCC1 (stereo not given)	inconclusive: 102%
CCOC(=O)C1=C(C)NC(=NC)SC1c1ccccc1 (stereo not given)	inconclusive: 99%
CCN(CC)S(=O)(=O)c1ccc(OC)c(NC(=O)c2ccc3c(c2)OCO3)c1	inconclusive: 94%
COc1ccc(-c2noc(CCC(=O)NCCCN3CCC(C)CC3)n2)cc1	inconclusive: 101%
COc1ccc(NC(=O)CSc2ncccc2C(=O)OC(C)C)cc1OC	inconclusive: 103%
CN(C)CCNC(=S)Nc1ccc(F)c(F)c1F	inactive: 92%
CCc1nnc(NC(=O)CSc2nnc(-c3ccoc3C)n2-c2ccc(C)cc2)s1	inconclusive: 91%
Cc1cc(C(=O)NCC23CC4CC(CC(C4)C2)C3)c(C)o1	inactive: 97%
CCN=c1scc(-c2ccc3c(c2)NC(=O)CO3)n1N=C1CCCC1	inconclusive: 104%
CCn1cc(C(=O)OCC(=O)NCc2ccccc2Cl)c(=O)c2ccc(C)nc21	inactive: 87%
CC1CCCCC1NC(=O)COC(=O)CNC(=O)c1cccc(F)c1 (stereo not given)	inactive: 98%
N#Cc1c(NC(=O)C2CC(Cl)=CCC2C(=O)O)sc2c1CCCCC2 (stereo not given)	inactive: 94%

In a second layout: results already given.
SMILES | GTP binding activity (percent of control)
COCCN(CCOC)S(=O)(=O)c1ccc(C(=O)Nc2nc(-c3ccncc3)cs2)cc1 | inconclusive: 93%
O=C(CCN1CCOCC1)Nc1ccccc1 | inconclusive: 101%
C=CCOC(=O)CCCC(=O)NC1CCCCC1 | inconclusive: 102%
